From publication PMC11997217, “Inactivation of GH3.5 by COP1-mediated K63-linked ubiquitination promotes seedling hypocotyl elongation” (Nature Communications, 2025) come the findings set out here.

No constants are given. Whether binding was seen depends on the method and setting. In cells and extracts the contact can be indirect. Some entries that bind do so weakly or less than the wild type. Sequences can lack the tags named with a protein.

For one experiment, the target named is T1, cLUC-COP1 (Arabidopsis) (UniProt P43254).
T1 sequence: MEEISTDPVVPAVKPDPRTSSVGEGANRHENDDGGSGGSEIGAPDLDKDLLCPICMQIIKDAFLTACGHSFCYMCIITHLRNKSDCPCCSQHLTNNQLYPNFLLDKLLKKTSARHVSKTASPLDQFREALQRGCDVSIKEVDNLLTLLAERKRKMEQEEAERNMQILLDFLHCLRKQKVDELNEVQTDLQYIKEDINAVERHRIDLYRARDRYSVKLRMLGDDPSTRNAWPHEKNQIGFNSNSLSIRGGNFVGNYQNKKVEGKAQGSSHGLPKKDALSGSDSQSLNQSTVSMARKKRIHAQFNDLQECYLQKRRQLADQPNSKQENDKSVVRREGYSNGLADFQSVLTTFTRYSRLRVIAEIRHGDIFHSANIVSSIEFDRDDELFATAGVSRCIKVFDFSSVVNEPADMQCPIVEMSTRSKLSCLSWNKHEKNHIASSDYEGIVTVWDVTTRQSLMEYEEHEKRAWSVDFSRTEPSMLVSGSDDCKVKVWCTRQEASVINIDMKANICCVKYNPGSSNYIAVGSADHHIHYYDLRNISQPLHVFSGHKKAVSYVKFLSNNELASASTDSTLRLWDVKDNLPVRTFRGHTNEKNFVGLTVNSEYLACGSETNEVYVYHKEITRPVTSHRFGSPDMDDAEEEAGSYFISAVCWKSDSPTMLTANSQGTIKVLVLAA
Briefly: split reporter; firefly luciferase complementation imaging (LCI) in Nicotiana benthamiana leaves; COP1 forms fused with cLUC, GH3.5 with nLUC; 3 d in the dark after infiltration.

A further experiment has as its target T2, YFP^N-COP1 (Arabidopsis) (UniProt P43254).
T2 sequence: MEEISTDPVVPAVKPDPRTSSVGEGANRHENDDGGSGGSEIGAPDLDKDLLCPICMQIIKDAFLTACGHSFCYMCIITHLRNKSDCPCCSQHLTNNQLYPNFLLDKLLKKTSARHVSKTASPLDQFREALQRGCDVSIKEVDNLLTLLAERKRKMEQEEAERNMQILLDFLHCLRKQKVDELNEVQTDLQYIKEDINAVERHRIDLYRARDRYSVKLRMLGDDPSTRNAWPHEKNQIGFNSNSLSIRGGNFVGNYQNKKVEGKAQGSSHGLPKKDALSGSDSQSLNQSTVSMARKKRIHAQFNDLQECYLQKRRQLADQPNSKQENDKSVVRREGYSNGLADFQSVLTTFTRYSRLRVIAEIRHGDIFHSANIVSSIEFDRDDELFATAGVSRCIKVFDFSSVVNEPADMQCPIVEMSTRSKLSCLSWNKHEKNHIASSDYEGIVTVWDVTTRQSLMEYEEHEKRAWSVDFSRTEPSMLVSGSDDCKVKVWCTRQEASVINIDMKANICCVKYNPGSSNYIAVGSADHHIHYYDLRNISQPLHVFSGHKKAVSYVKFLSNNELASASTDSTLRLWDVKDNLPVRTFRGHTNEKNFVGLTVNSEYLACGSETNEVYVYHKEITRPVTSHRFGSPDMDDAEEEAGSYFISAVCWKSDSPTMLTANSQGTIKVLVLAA
Briefly: split reporter; BiFC in Arabidopsis protoplasts; YFP^N-COP1 and YFP^C-GH3.5; 14 h in the dark at 22 °C; confocal microscopy, H2B-mCherry as nuclear marker.

B1: GH3.5-nLUC (enzyme, UniProt O81829 1-612)
chain: MPEAPKKESLEVFDLTLDQKNKQKLQLIEELTSNADQVQRQVLEEILTRNADVEYLRRHDLNGRTDRETFKNIMPVITYEDIEPEINRIANGDKSPILSSKPISEFLTSSGTSGGERKLMPTIEEELDRRSLLYSLLMPVMSQFVPGLENGKGMYFLFIKSESKTPGGLPARPVLTSYYKSSHFKERPYDPYTNYTSPNETILCSDSYQSMYSQMLCGLCQHQEVLRVGAVFASGFIRAIKFLEKHWIELVRDIRTGTLSSLITDPSVREAVAKILKPSPKLADFVEFECKKSSWQGIITRLWPNTKYVDVIVTGTMSQYIPTLDYYSNGLPLVCTMYASSECYFGVNLRPLCKPSEVSYTLIPSMAYFEFLPVHRNNGVTNSINLPKALTEKEQQELVDLVDVKLGQEYELVVTTYAGLCRYRVGDLLRVTGFKNKAPQFSFICRKNVVLSIDSDKTDEVELQNAVKNAVTHLVPFDASLSEYTSYADTSSIPGHYVLFWELCLDGNTPIPPSVFEDCCLAVEESFNTVYRQGRVSDKSIGPLEIKIVEPGTFDKLMDYAISLGASINQYKTPRCVKFAPIIELLNSRVVDSYFSPKCPKWVPGHKQWGSN
Take B1: the binding entry with cLUC-COP1 (Arabidopsis) is “binds”.

B2: YFP^C-GH3.5 (enzyme, UniProt O81829 1-612)
chain: MPEAPKKESLEVFDLTLDQKNKQKLQLIEELTSNADQVQRQVLEEILTRNADVEYLRRHDLNGRTDRETFKNIMPVITYEDIEPEINRIANGDKSPILSSKPISEFLTSSGTSGGERKLMPTIEEELDRRSLLYSLLMPVMSQFVPGLENGKGMYFLFIKSESKTPGGLPARPVLTSYYKSSHFKERPYDPYTNYTSPNETILCSDSYQSMYSQMLCGLCQHQEVLRVGAVFASGFIRAIKFLEKHWIELVRDIRTGTLSSLITDPSVREAVAKILKPSPKLADFVEFECKKSSWQGIITRLWPNTKYVDVIVTGTMSQYIPTLDYYSNGLPLVCTMYASSECYFGVNLRPLCKPSEVSYTLIPSMAYFEFLPVHRNNGVTNSINLPKALTEKEQQELVDLVDVKLGQEYELVVTTYAGLCRYRVGDLLRVTGFKNKAPQFSFICRKNVVLSIDSDKTDEVELQNAVKNAVTHLVPFDASLSEYTSYADTSSIPGHYVLFWELCLDGNTPIPPSVFEDCCLAVEESFNTVYRQGRVSDKSIGPLEIKIVEPGTFDKLMDYAISLGASINQYKTPRCVKFAPIIELLNSRVVDSYFSPKCPKWVPGHKQWGSN
As for B2, the binding result with YFP^N-COP1 (Arabidopsis) was “binds”.
